Reference: the supplement of paper PMC3682954
Values joined by “and” are separate entries in the source; they are usually repeats but may differ in a detail not shown here. Identical values can stand only once. Counter-ions that a name gives are not always drawn. ± gives the standard deviation of the averaged measurements. This is one part of the list. Repeats are few or missing, and single values can be far off.

Tested on: RAW 264.7
Assay: cell viability (MTT) relative to vehicle control; higher = more viable cells
Details: stimulus: HMGB1 5 ug/ml, 18 h
[1] = compound concentration: 1 ug/ml

| SMILES | cell viability (compound concentration: 3 uM) | cell viability [1] [%] |
| --- | --- | --- |
| C[C@]12C=CC(=O)C=C1CC[C@@H]1[C@@H]2[C@@H](O)C[C@@]2(C)[C@H]1CC[C@]2(O)C(=O)CO | 110% |  |
| C[C@]12C=CC(=O)C=C1CC[C@@H]1[C@@H]2[C@@H](O)C[C@@]2(C)[C@H]1CC[C@]2(O)C(=O)CO [Prednisolone] | 115 ± 12% |  |
| O=c1[nH]cc(F)c(=O)[nH]1 [5-Fluorouracil] | 103 ± 3.7% |  |
| O=c1[nH]cc(F)c(=O)[nH]1 [5-fluorouracil] | 88.9% |  |
| O=c1[nH]cc(F)c(=O)[nH]1 | 99.7 ± 3% |  |
| CCCCCCCC/C=C\CCCCCCCC(=O)NCc1ccc(O)c(OC)c1 [Olvanil] | 92.6% |  |
| C[N+](C)(C)CCO.[Br-] [Choline bromide] | 103% |  |
| N=c1ccn2c(n1)O[C@H]1[C@H](O)[C@@H](CO)O[C@H]12 [Cyclocytidine] | 100% |  |
| N=c1ccn2c(n1)O[C@H]1[C@H](O)[C@@H](CO)O[C@H]12 | 108 ± 3.1% |  |
| N=c1ccn2c(n1)O[C@H]1[C@H](O)[C@@H](CO)O[C@H]12 [Ancitabine hydrochloride] | 88.2% |  |
| CC(=O)Oc1cc(C(F)(F)F)ccc1C(=O)O [Triflusal] | 80.2% |  |
| CN1CCN(CCCN2c3ccccc3Sc3ccc(S(=O)(=O)N(C)C)cc32)CC1 [Thioproperazine dimesylate] | 105% |  |
| C[C@@H](c1ncncc1F)[C@](O)(Cn1cncn1)c1ccc(F)cc1F | 93.7% |  |
| O=C(O)Cc1ccccc1Nc1c(Cl)cccc1Cl [Diclofenac sodium] | 98.4 ± 8.6% |  |
| O=C(O)Cc1ccccc1Nc1c(Cl)cccc1Cl | 97% and 98.6% |  |
| O=C(O)Cc1ccccc1Nc1c(Cl)cccc1Cl [Diclofenac] | 96.7% |  |
| COc1cc2c(cc1O)CC[C@@H]1[C@@H]2CC[C@]2(C)[C@@H](O)CC[C@@H]12 [2-methoxyestradiol] | 103% |  |
| CNC(=O)[C@H]1O[C@@H](n2cnc3c(NCc4ccc(N)cc4)ncnc32)[C@H](O)[C@@H]1O | 100% |  |
| COC(=O)C1=C(C)NC(C)=C(C(=O)OC)C1c1ccccc1[N+](=O)[O-] | 102 ± 6% |  |
| COC(=O)C1=C(C)NC(C)=C(C(=O)OC)C1c1ccccc1[N+](=O)[O-] [Nifedipine] | 109 ± 6.2% |  |
| Cc1cc2c(C(C)C)c(O)c(O)c(/C=N/NC(=O)c3ccoc3C)c2c(O)c1-c1c(C)cc2c(C(C)C)c(O)c(O)c(/C=N/NC(=O)c3ccoc3C)c2c1O |  | 109 |
| CN(C)CCCN1c2ccccc2CCc2ccc(Cl)cc21 [Clomipramine hydrochloride] | 99.4 ± 8.4% |  |
| CN(C)CCCN1c2ccccc2CCc2ccc(Cl)cc21 | 103% |  |
| CO[C@@]1(NC(=O)C2SC(=C(C(N)=O)C(=O)O)S2)C(=O)N2C(C(=O)O)=C(CSc3nnnn3C)CS[C@@H]21 (stereo partly specified) [Cefotetan] | 130% |  |
| Cc1cc(C)cc(OCC(=O)N/N=C/c2c(O)c(O)c(C(C)C)c3cc(C)c(-c4c(C)cc5c(C(C)C)c(O)c(O)c(/C=N/NC(=O)COc6cc(C)cc(C)c6)c5c4O)c(O)c23)c1 |  | 90.8 |
| Cc1cc(NC(=O)C2=C(O)c3ccccc3S(=O)(=O)N2C)no1 [Isoxicam] | 97.7% |  |
